Some of the results follow.
Biological target: OsWRKY34 (Oryza sativa, UniProt Q0JBA9 1-250)
Test: protein-binding microarray (RPBM); PBS, 2% BSA, 51.3 ng/ul salmon testes DNA, 50 uM zinc acetate, 200 nM TF, 25 C, 1 h; high values mean tight binding
Conditions: protein: recombinant; tags: N-terminal polyhistidine and DsRed monomer fusion (pET32a); label: CyDye5-dUTP incorporated in the synthesized complementary strand; 3' TTTTT single-stranded linker to array surface; dsDNA, one strand shown
In short: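 The binding signal for each feature is its fluorescence intensity in arbitrary units. An Axon 4000B scanner was used to read a custom Agilent array that had been made double-stranded with Cy5-dUTP primer extension, blocked with 2% BSA, incubated at 25 °C for 1 h with 200 nM protein in PBS, 2% BSA, salmon testes DNA and 50 µM zinc acetate, and washed. The protein was an N-terminal polyhistidine–DsRed transcription factor fusion from E. coli BL21-CodonPlus, purified on Ni–NTA.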

The chains behind the UniProt entries cited, without tags or fusion partners.
UniProt Q0JBA9, entry or part of it: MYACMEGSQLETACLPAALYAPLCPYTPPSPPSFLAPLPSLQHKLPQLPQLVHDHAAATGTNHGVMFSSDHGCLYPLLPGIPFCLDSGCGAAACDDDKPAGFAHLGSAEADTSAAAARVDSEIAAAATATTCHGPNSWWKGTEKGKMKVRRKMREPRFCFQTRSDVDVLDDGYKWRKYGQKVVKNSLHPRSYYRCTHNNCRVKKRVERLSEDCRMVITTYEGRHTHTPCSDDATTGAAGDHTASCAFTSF

| Sequence | binding signal |
| --- | --- |
| ATATCTTGCTACTTTGTCTTCTTCCAACCGATCCATACGCCGGAGTCACCTAGTGCAG | 8790 fluorescence intensity (a.u.) |
| AACTTGGTGGGTTTGGTTTTGCTCTTTCTGTTGACCAAGCCGGAGTCACCTAGTGCAG | 12000 fluorescence intensity (a.u.) |
| CTTTCGCGTGGGCATCTCTTTCTTTCGCGTTCGCTTCCTTCGGAGTCACCTAGTGCAG | 11000 fluorescence intensity (a.u.) |
| ATCCACTCCAGTCCCGTCCCGTTTCCTTGCTGCCCGGCCGCGGAGTCACCTAGTGCAG | 9660 fluorescence intensity (a.u.) |
| TTTTTTTGCTTTTTCACTATTTTTTTATTTTGACGGACGACGGAGTCACCTAGTGCAG | 9300 fluorescence intensity (a.u.) |
| GCCTCCTCCATCCATGTCGGCGCCGCGGCTCTTCCCAACACGGAGTCACCTAGTGCAG | 8250 fluorescence intensity (a.u.) |
| CTGATCCGGGCTTTTGGTTCTCTGCCGTGCTGGGGTCTCTCGGAGTCACCTAGTGCAG | 8720 fluorescence intensity (a.u.) |
| ACCACATCCATCTTAACTATGTTTTTTCTTGCCAAGTATGCGGAGTCACCTAGTGCAG | 8340 fluorescence intensity (a.u.) |
| CCTAATTTGCGTGATTGGATTGGTTGGTTGTGTTGTAATGCGGAGTCACCTAGTGCAG | 8730 fluorescence intensity (a.u.) |
| GCCAGTGGAGTTTCCTTTTTGTGCTCCTCGTGTTTGTTCTCGGAGTCACCTAGTGCAG | 9140 fluorescence intensity (a.u.) |
| TACTTCATTTGTTTAATTATTTCATGCACTACGGTTTTCTCGGAGTCACCTAGTGCAG | 9530 fluorescence intensity (a.u.) |
| CTATTTGTCTCTTTGGCCTATTTTTAGAGCGCTCATGTCTCGGAGTCACCTAGTGCAG | 8660 fluorescence intensity (a.u.) |
| TCTATTTCCGCTAAAAGTTTTCGGTTTTTGGGTATATCAACGGAGTCACCTAGTGCAG | 8610 fluorescence intensity (a.u.) |
| TCCACTTGCATCTCTCTCTCTCTCTCTCCCAATTATATTTCGGAGTCACCTAGTGCAG | 11300 fluorescence intensity (a.u.) |
| TGTCGCCATTGATGCCGATCTCGGGCCATTCCTCTGTCGACGGAGTCACCTAGTGCAG | 9710 fluorescence intensity (a.u.) |
| TTCCGGCCCGCGTTCTTTTTGAAGTCCAGTTTACGTCCTTCGGAGTCACCTAGTGCAG | 10800 fluorescence intensity (a.u.) |
| CTTTTACGTCCGTTTTTTTCTTCCCTTCTCGTCAGACAAACGGAGTCACCTAGTGCAG | 9270 fluorescence intensity (a.u.) |
| CGGTCTTGTTGCAGACACGTCCTTCCTATTTGTTTCCAAACGGAGTCACCTAGTGCAG | 10400 fluorescence intensity (a.u.) |
| AATGTTCGTGAAAGTGCAAATGTGGTGTTGCATGTGTAGTCGGAGTCACCTAGTGCAG | 8110 fluorescence intensity (a.u.) |
| ATCACCCTGCTCCTGTCCTGGAAGATCTCAGGGTTGCCACCGGAGTCACCTAGTGCAG | 8080 fluorescence intensity (a.u.) |
| ACCCATCATCACCTTCAACCTAACGATCGACCTGTACGTACGGAGTCACCTAGTGCAG | 8090 fluorescence intensity (a.u.) |

Looked up above:
Entry for ATCCACTCCAGTCCCGTCCCGTTTCCTTGCTGCCCGGCCGCGGAGTCACCTAGTGCAG under binding signal: 9660 fluorescence intensity (a.u.)
Entry for TACTTCATTTGTTTAATTATTTCATGCACTACGGTTTTCTCGGAGTCACCTAGTGCAG under binding signal: 9530 fluorescence intensity (a.u.)

(further entries)

| Sequence | binding signal |
| --- | --- |
| AATTAATACATGGTCCACTTATCTTTCTCACAAAGTTTCTCGGAGTCACCTAGTGCAG | 9070 fluorescence intensity (a.u.) |
| GCTGGGCACTTACTGCATCGATCGATCTCCTCTTCAGAACCGGAGTCACCTAGTGCAG | 10500 fluorescence intensity (a.u.) |
| AATCCAACGTGGTTGTTGCCTCTGTACTGTACTGTACTCCCGGAGTCACCTAGTGCAG | 8180 fluorescence intensity (a.u.) |
| GCCGACTCATGCTCTCTCTCCTATTTAGCTCATTGACAAACGGAGTCACCTAGTGCAG | 10200 fluorescence intensity (a.u.) |
| GGATGTTTAGTCTTTTACATATCTGTTTTTTTTTTCTGAACGGAGTCACCTAGTGCAG | 10100 fluorescence intensity (a.u.) |
| GAATGATGACTGGACTGCCACACGTACACCACGTAGACCACGGAGTCACCTAGTGCAG | 9800 fluorescence intensity (a.u.) |
| TGCCAAATCGTGGGCCCCACGCTTTTTTCCCCATCTCCTCCGGAGTCACCTAGTGCAG | 10200 fluorescence intensity (a.u.) |
| ACACACAAGCACAATGAGAGACGCTTGGTGGGGTGGGGTGCGGAGTCACCTAGTGCAG | 9870 fluorescence intensity (a.u.) |
| GCCACACCAGCCACACCACGCTCGCACGCCGCCTCCGCCGCGGAGTCACCTAGTGCAG | 14200 fluorescence intensity (a.u.) |
| CATTTCTTGCATCTCCAATTATACTCTTGCTTCCAATTTCCGGAGTCACCTAGTGCAG | 11600 fluorescence intensity (a.u.) |
| GCTTCCTCGGCCTCGGGCCGCGTCTCCATGGTCGACTTGACGGAGTCACCTAGTGCAG | 11200 fluorescence intensity (a.u.) |
| CTGTATCCATCCCTAAATATTTGACGCCGTTGACTTTTCTCGGAGTCACCTAGTGCAG | 25600 fluorescence intensity (a.u.) |
| TCCTCTGCCTCCACCGCCGTCTGCGCCGATCCCCATCCATCGGAGTCACCTAGTGCAG | 9980 fluorescence intensity (a.u.) |
| ATCCCATTGGCAAATGATGCCTATAGCTGTGACTTATGAACGGAGTCACCTAGTGCAG | 8880 fluorescence intensity (a.u.) |
| AAGACTTTTGCTGCATTCTGTTTTTGTCCATGAACCATATCGGAGTCACCTAGTGCAG | 9400 fluorescence intensity (a.u.) |
| GTTGGGTTATTTCGGAAGGGAGGGAGTACTTGTCATCCCGCGGAGTCACCTAGTGCAG | 9100 fluorescence intensity (a.u.) |
| GGTTCTCATGGTGTGATCTCAGTAGTTTCTTGGTCTTATTCGGAGTCACCTAGTGCAG | 8160 fluorescence intensity (a.u.) |
| AGCCGACGCATCATCTACTCATCACACATTTAATTTTTCCCGGAGTCACCTAGTGCAG | 14100 fluorescence intensity (a.u.) |
| ACATTTCCTACACTTCCGGTACTTGTCAATTTCCCATCACCGGAGTCACCTAGTGCAG | 10000 fluorescence intensity (a.u.) |
| TAAATTTATCTTGGATCGCAAATATTACTATTTTTTTATACGGAGTCACCTAGTGCAG | 8400 fluorescence intensity (a.u.) |
| GTAAAGTTGGCCATCTCTCGCCCACCGCTTCACCTTCACTCGGAGTCACCTAGTGCAG | 10400 fluorescence intensity (a.u.) |
